Data reported in paper PMC12274967.
No constants are given. Whether binding was seen depends on the method and setting. Binding seen in cells or lysates may run through a third protein. Some results given as binding are weak or reduced against the parent protein; the word gives no strength.

Sequences of proteins named here, by UniProt entry; tags and fusion partners are left off.
UniProt Q92560: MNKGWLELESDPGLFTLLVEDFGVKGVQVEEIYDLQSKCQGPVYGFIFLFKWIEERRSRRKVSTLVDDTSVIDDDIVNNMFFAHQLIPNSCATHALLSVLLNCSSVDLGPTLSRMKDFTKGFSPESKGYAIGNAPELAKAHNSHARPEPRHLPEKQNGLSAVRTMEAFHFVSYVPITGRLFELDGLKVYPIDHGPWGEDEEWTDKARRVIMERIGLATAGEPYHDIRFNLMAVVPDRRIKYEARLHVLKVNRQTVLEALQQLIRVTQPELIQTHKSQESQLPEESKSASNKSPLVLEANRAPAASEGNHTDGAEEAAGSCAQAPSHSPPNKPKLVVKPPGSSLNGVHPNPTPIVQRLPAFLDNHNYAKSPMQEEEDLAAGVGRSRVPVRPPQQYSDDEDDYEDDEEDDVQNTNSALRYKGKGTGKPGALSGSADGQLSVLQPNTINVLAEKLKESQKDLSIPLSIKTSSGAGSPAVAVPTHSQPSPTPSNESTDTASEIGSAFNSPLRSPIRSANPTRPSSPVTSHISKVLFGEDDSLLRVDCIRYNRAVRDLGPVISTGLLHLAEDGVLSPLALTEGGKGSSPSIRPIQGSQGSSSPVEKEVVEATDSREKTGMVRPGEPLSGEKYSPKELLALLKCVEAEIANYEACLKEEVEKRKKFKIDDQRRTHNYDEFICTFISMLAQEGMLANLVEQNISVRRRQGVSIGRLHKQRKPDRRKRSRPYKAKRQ
UniProt P04406: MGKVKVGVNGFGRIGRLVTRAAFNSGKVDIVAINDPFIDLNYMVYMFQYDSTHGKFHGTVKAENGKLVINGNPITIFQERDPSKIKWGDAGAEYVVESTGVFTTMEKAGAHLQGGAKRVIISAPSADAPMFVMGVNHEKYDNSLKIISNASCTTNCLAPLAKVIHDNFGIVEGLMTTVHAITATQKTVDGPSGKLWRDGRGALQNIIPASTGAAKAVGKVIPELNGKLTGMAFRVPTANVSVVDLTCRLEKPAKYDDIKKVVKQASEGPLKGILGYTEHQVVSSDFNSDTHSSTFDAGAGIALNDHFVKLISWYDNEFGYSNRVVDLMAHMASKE
UniProt P25490: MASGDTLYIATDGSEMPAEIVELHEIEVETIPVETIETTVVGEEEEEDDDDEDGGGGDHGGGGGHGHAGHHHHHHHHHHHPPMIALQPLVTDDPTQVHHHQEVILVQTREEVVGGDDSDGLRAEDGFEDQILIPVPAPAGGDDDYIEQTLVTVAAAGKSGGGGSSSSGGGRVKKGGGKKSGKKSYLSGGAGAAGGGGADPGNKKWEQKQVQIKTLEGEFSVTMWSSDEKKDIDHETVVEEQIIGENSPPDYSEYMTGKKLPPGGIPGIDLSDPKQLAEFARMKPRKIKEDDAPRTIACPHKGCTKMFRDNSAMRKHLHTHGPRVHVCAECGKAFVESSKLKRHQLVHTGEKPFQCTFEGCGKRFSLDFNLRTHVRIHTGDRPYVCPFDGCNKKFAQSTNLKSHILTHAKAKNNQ

Biological target: BRCA1-associated protein 1 (human (endogenous in 786-O)) (UniProt Q92560)
Assay: co-IP; 786-O cell lysate (IP buffer with Tris, NaCl, EDTA, NP-40, glycerin, pH 7.4); endogenous BAP1 precipitated with agarose-cross-linked mouse anti-human BAP1 monoclonal antibody, 4°C overnight, normal mouse IgG as control; washed with TBS; Western blot of the precipitate

Row | Substance | binding
1 | glyceraldehyde-3-phosphate dehydrogenase (from UniProt P04406 1-335) | no binding
2 | YY1 (from UniProt P25490 1-414) | binds
